Values as published with doi:10.1371/journal.pone.0140310, rounded.

Drug key:
ENMD-2076: Cc1cc(Nc2cc(N3CCN(C)CC3)nc(/C=C/c3ccccc3)n2)n[nH]1 at 0.2 µM
YM155: COCC[n+]1c2c(n(Cc3cnccn3)c1C)C(=O)c1ccccc1C2=O at 0.002 µM
vatalanib: Clc1ccc(Nc2nnc(Cc3ccncc3)c3ccccc23)cc1 at 10 µM
SNS-032: CC(C)(C)c1cnc(CSc2cnc(NC(=O)C3CCNCC3)s2)o1 at 0.05 µM
L-779450: Oc1cc(-c2nc(-c3ccccc3)[nH]c2-c2ccncc2)ccc1Cl at 1 µM
cediranib: COc1cc2c(Oc3ccc4[nH]c(C)cc4c3F)ncnc2cc1OCCCN1CCCC1 at 2 µM
crizotinib: C[C@@H](Oc1cc(-c2cnn(C3CCNCC3)c2)cnc1N)c1c(Cl)ccc(F)c1Cl at 1 µM
bexarotene: C=C(c1ccc(C(=O)O)cc1)c1cc2c(cc1C)C(C)(C)CCC2(C)C at 10 µM
lestaurtinib: C[C@]12O[C@H](C[C@]1(O)CO)n1c3ccccc3c3c4c(c5c6ccccc6n2c5c31)CNC4=O at 0.02 µM

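Human melanoma cells were exposed to a pair of drugs for 72 h in 1,536-well plates and read by automated microscopy after fixing and staining. The read-out is the fraction of cleaved-PARP-positive nuclei, in % of that fraction in the DMSO control; 200 means twice the control level of this apoptosis marker. Concentrations were fixed for each drug; these are the higher of two levels. These are primary screening values without error estimates. Basal and induced levels differ widely between cell lines.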 Only some of the drugs and lines screened are listed, without regard to their results.

- YM155 + crizotinib : WM451Lu: 563; RVH-421: 147
- L-779450 + crizotinib : WM451Lu: 1340; RVH-421: 195
- bexarotene + crizotinib : WM451Lu: 97.8; RVH-421: 231
- crizotinib + ENMD-2076 : WM451Lu: 128; RVH-421: 69.1
- L-779450 + cediranib : WM451Lu: 193; RVH-421: 136
- YM155 + SNS-032 : WM451Lu: 1600; RVH-421: 42.2
- lestaurtinib + vatalanib : WM451Lu: 47.5; RVH-421: 297
- L-779450 + YM155 : WM451Lu: 710; RVH-421: 103
- lestaurtinib + YM155 : WM451Lu: 441; RVH-421: 74.0
- vatalanib + cediranib : WM451Lu: 153; RVH-421: 127
- bexarotene + lestaurtinib : WM451Lu: 83.2; RVH-421: 132
- vatalanib + L-779450 : WM451Lu: 52.5; RVH-421: 278
- vatalanib + SNS-032 : WM451Lu: 55.8; RVH-421: 141
- SNS-032 + cediranib : WM451Lu: 102; RVH-421: 407
- SNS-032 + L-779450 : WM451Lu: 646; RVH-421: 77.3
- bexarotene + vatalanib : WM451Lu: 85.3; RVH-421: 89.1
- lestaurtinib + ENMD-2076 : WM451Lu: 34.8; RVH-421: 134
- bexarotene + cediranib : WM451Lu: 42.2; RVH-421: 133
- lestaurtinib + L-779450 : WM451Lu: 555; RVH-421: 183
- crizotinib + cediranib : WM451Lu: 145; RVH-421: 158
- SNS-032 + crizotinib : WM451Lu: 206; RVH-421: 440
- lestaurtinib + crizotinib : WM451Lu: 56.3; RVH-421: 52.4
- SNS-032 + ENMD-2076 : WM451Lu: 47.2; RVH-421: 122
- ENMD-2076 + YM155 : WM451Lu: 311; RVH-421: 47.3
- ENMD-2076 + vatalanib : WM451Lu: 114; RVH-421: 77.6
- bexarotene + ENMD-2076 : WM451Lu: 42.3; RVH-421: 68.7
- L-779450 + bexarotene : WM451Lu: 184; RVH-421: 292
- L-779450 + ENMD-2076 : WM451Lu: 527; RVH-421: 262
- bexarotene + SNS-032 : WM451Lu: 91.6; RVH-421: 63.2
- lestaurtinib + cediranib : WM451Lu: 159; RVH-421: 53.6
- vatalanib + crizotinib : WM451Lu: 63.7; RVH-421: 181
- ENMD-2076 + cediranib : WM451Lu: 158; RVH-421: 81.6
- cediranib + YM155 : WM451Lu: 338; RVH-421: 143
- bexarotene + YM155 : WM451Lu: 166; RVH-421: 96.8
- vatalanib + YM155 : WM451Lu: 60.0; RVH-421: 125

Once more, the final 4:

Combination	WM451Lu	RVH-421
ENMD-2076 + cediranib	158	81.6
cediranib + YM155	338	143
bexarotene + YM155	166	96.8
vatalanib + YM155	60.0	125